Results as given in the supplement of paper PMC10338343.
± gives the standard deviation. Only a part is listed here, and it is no random draw. The uncertainty is large for many entries. This is one part of the list.

Tests used:
[1] = system: MILI (PIWIL2) piRISC loaded with L1MC piRNA (26 nt); assay: pre-steady-state target cleavage rate (min^-1); higher = faster piRNA-guided slicing of the target; conditions: guide: L1MC piRNA 5'p-UAACUAAAUACUAUGCAAGCUGUAGG
Summary of the method: (§1)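 With or without 500 nM GTSF1 partner protein, 1 nM active affinity-purified piRISC carrying one synthetic guide was mixed with 0.1 nM transcribed, DNA-blocked target RNA library in HEPES–potassium acetate buffer at 33 °C for 0–8 or 0–960 min. Uncleaved targets were sequenced and normalised to depth and to weakly complementary targets, three trials were pooled, and k3 was capped at 0.0001 min^-1. The pre-steady-state cleavage rate came from a burst-and-steady-state fit.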

[2] = system: MIWI (PIWIL1) piRISC loaded with L1MC piRNA (30 nt); assay: as above; conditions: guide: L1MC piRNA 5'p-UAACUAAAUACUAUGCAAGCUGUAGGUCCU
Summary of the method: as §1

[3] = system: EfPiwi piRISC loaded with L1MC piRNA (26 nt); assay: pre-steady-state target cleavage rate (min^-1); guide: L1MC piRNA 5'p-UAACUAAAUACUAUGCAAGCUGUAGG; MIWI and MILI are mouse PIWI proteins and EfPiwi is from a freshwater sponge; tags in brackets are library labels; higher = faster piRNA-guided slicing of the target
Summary of the method: as §1

[4] = auxiliary factor: 500 nM mouse GTSF1
[5] = auxiliary factor: none (no GTSF1)
[6] = auxiliary factor: 500 nM Ephydatia muelleri Gtsf1
[7] = auxiliary factor: none (no Gtsf1)

Sequence	pre-steady-state target cleavage rate [1, 4]	pre-steady-state target cleavage rate [1, 5]	pre-steady-state target cleavage rate [2, 4]	pre-steady-state target cleavage rate [2, 5]	pre-steady-state target cleavage rate [3, 6]	pre-steady-state target cleavage rate [3, 7]
UCCUGGAUGUCGUUGCAUAGUAUUUACAAA	0.00221 ± 0.005	0.000623 ± 0.01	0.000388 ± 0.017	0.000629 ± 0.0097	0.000202 ± 0.031	0.000238 ± 0.037
UCCUGGUACAGGAAGCAUAGUAUUUAGAAA	–	0.000471 ± 0.0082	–	0.000991 ± 0.0048	0.00226 ± 0.0043	< 0.0001
UCCUGGAUCAGCUUGCAUACUAUUUACAAA	–	0.000905 ± 0.0057	–	0.00172 ± 0.0044	0.00243 ± 0.0026	0.000514 ± 0.012
UCCUGGAUGUCGAAGCAUAGUACUUAGUUA	0.00746 ± 0.0031	0.00231 ± 0.0031	0.00198 ± 0.0044	0.00125 ± 0.0043	0.000285 ± 0.016	0.000762 ± 0.0098
UCCUGGAACAGCUUGCAUACAAUUUAGAAA	–	0.00076 ± 0.0063	–	0.00087 ± 0.0077	0.00296 ± 0.0045	0.000171 ± 0.041
UCCUGGAACAGCUAGCAUAGAAUUUAGUUA	0.0486 ± 0.0073	0.00171 ± 0.003	0.209 ± 0.02	0.0115 ± 0.0043	0.00214 ± 0.0023	0.00111 ± 0.0065
UCCUGGUACAGCUUGCAUAGAUUUUAGUAA	–	0.00348 ± 0.0035	–	0.00193 ± 0.0033	0.00206 ± 0.0032	0.000675 ± 0.014
UCCUGGAUGUCGUUGCAUAGCAUUUAGUUA	–	0.00159 ± 0.0057	–	0.00114 ± 0.0071	0.000784 ± 0.0048	0.000335 ± 0.018
UCCUGGAUGACGAUGCAUAGUAUUUAGAAA	–	0.00115 ± 0.0073	–	0.00154 ± 0.0052	0.00171 ± 0.0043	0.000551 ± 0.015
UCCUGGAACACCUAGCAUAGUAUUUAGUUA	–	0.0025 ± 0.0039	–	0.0029 ± 0.0035	0.00601 ± 0.0036	0.000569 ± 0.012
UCCUGGAUGUGCUUGCAUAGUAUUAAGAAA	–	0.00115 ± 0.0056	–	0.0019 ± 0.0036	0.00125 ± 0.0034	0.00087 ± 0.0087
UCCUCCUACAGCUUGCAUAGAUAUUAGUUA	–	0.00145 ± 0.0045	–	0.00133 ± 0.0044	0.00105 ± 0.0042	0.000633 ± 0.0078
UCCUGGAUGUCCUUGCAUAUGUAUUUAGUUA	0.00374 ± 0.004	0.00205 ± 0.0037	0.0019 ± 0.0059	0.00127 ± 0.0067	0.00151 ± 0.0067	0.000853 ± 0.0084
UCCUGGAUGAGCUUCCAUAGUAUUUAGUUA	–	0.00124 ± 0.0041	–	0.00169 ± 0.0034	0.00346 ± 0.0018	0.000352 ± 0.028
UCCUGCUACAGCUUGCAUAGUAUAAAGAAA	–	0.000948 ± 0.0082	–	0.00119 ± 0.0064	0.00337 ± 0.0023	0.000226 ± 0.026
UCCUGGAUGUGCUUGCUAUAGUAUUUAGUUA	0.00199 ± 0.0066	0.00071 ± 0.011	0.00166 ± 0.0079	0.000963 ± 0.0097	0.00236 ± 0.0029	0.00156 ± 0.0084
UCCUCGUACAGCUUGCAUAGUAUUUUCAAA	–	0.00107 ± 0.0051	–	0.00228 ± 0.0026	0.0038 ± 0.0029	0.000357 ± 0.018
UCCUGGAUGAGGAAGCAUAGUAUUUAGAAA	–	0.00061 ± 0.0092	–	0.000378 ± 0.01	0.000581 ± 0.0076	0.000262 ± 0.026
UCCUGGAACAGCUUGCAUAGAUUUUUCAAA	–	0.00111 ± 0.0048	–	0.000416 ± 0.0077	0.000868 ± 0.0041	0.000466 ± 0.014
UCCUCCUACAGCUUGCAUAGUAAAAAGAAA	–	0.0011 ± 0.0045	–	0.000883 ± 0.0075	0.00287 ± 0.0026	0.000261 ± 0.017

At a glance, some entries already given.
Sequence	pre-steady-state target cleavage rate [1, 4]	pre-steady-state target cleavage rate [1, 5]	pre-steady-state target cleavage rate [2, 4]	pre-steady-state target cleavage rate [2, 5]	pre-steady-state target cleavage rate [3, 6]	pre-steady-state target cleavage rate [3, 7]
UCCUGGUACAGCUUGCAUAGAUUUUAGUAA	–	0.00348 ± 0.0035	–	0.00193 ± 0.0033	0.00206 ± 0.0032	0.000675 ± 0.014
UCCUGGAUGUCGUUGCAUAGCAUUUAGUUA	–	0.00159 ± 0.0057	–	0.00114 ± 0.0071	0.000784 ± 0.0048	0.000335 ± 0.018
UCCUGGAUGACGAUGCAUAGUAUUUAGAAA	–	0.00115 ± 0.0073	–	0.00154 ± 0.0052	0.00171 ± 0.0043	0.000551 ± 0.015
UCCUGGAACACCUAGCAUAGUAUUUAGUUA	–	0.0025 ± 0.0039	–	0.0029 ± 0.0035	0.00601 ± 0.0036	0.000569 ± 0.012
UCCUGGAUGUGCUUGCAUAGUAUUAAGAAA	–	0.00115 ± 0.0056	–	0.0019 ± 0.0036	0.00125 ± 0.0034	0.00087 ± 0.0087
